From the supplement of paper PMC12823440, “Inhibitors supercharge kinase turnover through native proteolytic circuits” (Nature, 2025)
Structures can show the parent of a compound that is named as a salt. Some of the results follow. The calls rarely recur for the same compound in another form.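 In K562 cells expressing nanoluciferase-fused kinases, luminescence was recorded at 4 h intervals between 2 and 18 h, normalized as percent of control with DMSO at 100% and a positive control at 0%. A significant (2 sigma) signal drop marks a time point as decreased. The authors' rule for a hit is not shown and takes in more than the number of time points.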

Sequences of proteins named here, by UniProt entry; tags and fusion partners are left off.
UniProt P28482, whole entry: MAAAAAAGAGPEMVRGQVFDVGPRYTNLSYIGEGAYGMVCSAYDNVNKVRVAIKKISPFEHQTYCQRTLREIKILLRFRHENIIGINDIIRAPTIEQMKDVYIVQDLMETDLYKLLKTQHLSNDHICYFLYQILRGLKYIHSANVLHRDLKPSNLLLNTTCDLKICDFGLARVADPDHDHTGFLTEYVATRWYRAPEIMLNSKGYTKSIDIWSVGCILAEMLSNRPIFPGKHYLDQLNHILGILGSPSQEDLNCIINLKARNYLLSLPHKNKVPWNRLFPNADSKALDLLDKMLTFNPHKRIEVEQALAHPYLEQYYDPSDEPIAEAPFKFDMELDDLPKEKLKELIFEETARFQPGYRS
UniProt P31152, whole entry: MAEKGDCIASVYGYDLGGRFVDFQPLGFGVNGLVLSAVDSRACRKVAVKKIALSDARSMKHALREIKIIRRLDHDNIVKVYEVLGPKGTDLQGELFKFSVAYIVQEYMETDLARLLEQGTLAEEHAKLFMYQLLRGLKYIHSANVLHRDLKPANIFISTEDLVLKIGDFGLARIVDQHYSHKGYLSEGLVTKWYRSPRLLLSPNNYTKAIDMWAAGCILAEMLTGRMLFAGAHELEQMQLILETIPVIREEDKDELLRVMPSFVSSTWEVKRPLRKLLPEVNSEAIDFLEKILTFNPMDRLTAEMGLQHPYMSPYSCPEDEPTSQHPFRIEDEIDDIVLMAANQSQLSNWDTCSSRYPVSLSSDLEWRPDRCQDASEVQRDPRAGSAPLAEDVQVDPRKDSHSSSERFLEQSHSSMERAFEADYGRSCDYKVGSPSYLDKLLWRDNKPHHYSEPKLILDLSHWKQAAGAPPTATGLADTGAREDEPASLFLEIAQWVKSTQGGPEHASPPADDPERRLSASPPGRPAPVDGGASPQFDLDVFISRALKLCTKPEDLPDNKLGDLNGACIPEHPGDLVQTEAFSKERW

biological target: MAPK1 (UniProt P28482); experiment: kinase-Nluc reporter destabilization hit call (1 = scored as downregulated) (binary); higher = compound decreases kinase abundance; conditions: K562; 2-18 h

kinase-Nluc reporter destabilization hit call, inactive:
COc1ccc([C@@H]2CC(=O)c3c(O)cc(O)cc3O2)cc1O [Hesperetin] (10 µM) 0
N#Cc1c(-c2ccccc2)cc(-c2cc(Br)ccc2O)[nH]c1=O (10 µM) 0
Cc1c(CN2CCN(C(=O)[C@H](C)O)CC2)sc2c(N3CCOCC3)nc(-c3cnc(N)nc3)nc12 [Apitolisib] (10 µM) 0
NC1(Cc2ccc(Cl)cc2)CCN(c2ncnc3[nH]ccc23)CC1 (10 µM) 0
O=C(/C=C/c1ccc(O)c(O)c1)c1ccc(O[C@@H]2O[C@H](CO)[C@@H](O)[C@H](O)[C@H]2O)c(O)c1O [Marein] (10 µM) 0
CN(CC(=O)N(Cc1ccc(C2CCCCC2)cc1)c1ccc(C(=O)O)cc1)S(=O)(=O)c1c(F)c(F)c(F)c(F)c1F (2.5 µM) 0
CC(C)NC(=O)N1CC[C@H](NC2=Nc3cc(F)ccc3N(CC(F)F)c3ccc(Cl)cc32)C1 (10 µM) 0

Two neighbouring entries out of the list so far, quoted:
kinase-Nluc reporter destabilization hit call, inactive:
O=C(/C=C/c1ccc(O)c(O)c1)c1ccc(O[C@@H]2O[C@H](CO)[C@@H](O)[C@H](O)[C@H]2O)c(O)c1O [Marein] (10 µM) 0
CN(CC(=O)N(Cc1ccc(C2CCCCC2)cc1)c1ccc(C(=O)O)cc1)S(=O)(=O)c1c(F)c(F)c(F)c(F)c1F (2.5 µM) 0

biological target: MAPK4 (UniProt P31152); experiment: as above; conditions: K562; 2-18 h

kinase-Nluc reporter destabilization hit call, inactive:
Cn1cc(Nc2nccc(N3C[C@H]4CC[C@@H](C3)N4C(=O)[C@@H]3CC3(F)F)n2)cn1 (10 µM) 0
CC(C)=CC(=O)CCC(=O)N1CCN(Cc2cc3nc(-c4cccc5[nH]ncc45)nc(N4CCOCC4)c3s2)CC1 (10 µM) 0
CN(C)CCN(Cc1ccc(Cl)cc1)c1ccccn1 [Chloropyramine hydrochloride] (10 µM) 0
COc1cc([N+](=O)[O-])ccc1S(=O)(=O)N1C[C@@H](CN2CCN(c3ccccn3)CC2)[C@H](c2cccc(F)c2)C1 (relative stereo) (10 µM) 0
Cc1noc(C)c1-c1ccc(-c2cc(C(N)=O)c(NC(N)=O)s2)c(O[C@H]2CCNC2)c1 (10 µM) 0
CC(C)(C)NC(=O)c1cncn1C1CCN(c2ccc(-c3nnc(C(F)(F)F)o3)cn2)CC1 (10 µM) 0
COc1cccc(-n2c(=O)[nH]c3cc(Cl)n(-c4ccc(-c5cccc(OC)c5O)cc4)c3c2=O)c1 (2.5 µM) 0
O=C(Nc1cccnc1)c1cc(C(=O)c2c(F)cccc2Br)c[nH]1 (10 µM) 0
O=C(Nc1cc(Oc2cc(F)c(NC(=O)C3(C(=O)Nc4ccc(F)cc4)CC3)cc2F)ccn1)C1CC1 [Altiratinib] (10 µM) 0
O=C1NC(=O)C(=Cc2ccc(-c3ccc(F)cc3)o2)S1 (stereo in doubt) (10 µM) 0
O=C(NC(NC(=S)Nc1ccc(F)c([N+](=O)[O-])c1)C(Cl)(Cl)Cl)C(c1ccccc1)c1ccccc1 (configuration not stated) (10 µM) 0
Nc1ncnc2c1ncn2[C@@H]1O[C@H](CO)C[C@H]1O [Cordycepin] (10 µM) 0
CC(C)(NS(=O)(=O)c1ccc2c(Cl)cnc(N=C(N)N)c2c1)C(=O)O (10 µM) 0
COc1cc2ncnc(Nc3cccc(Cl)c3)c2cc1OC (10 µM) 0
CCOc1ccc(C(=O)Nc2ncc([N+](=O)[O-])s2)cc1 (10 µM) 0
CC(C)CN[C@H]1CS(=O)(=O)C[C@@H]1S(=O)(=O)c1ccc(Cl)cc1 (10 µM) 0
CCn1c(=O)c(-c2ccc(-c3cncs3)cc2Cl)cc2cnc(Nc3ccc(N4CCN(C)CC4)cc3)nc21 (2.5 µM) 0
C[C@]1(O)CCC[C@@H]1n1c(=O)c(C(F)F)cc2cnc(NC3CCN(S(C)(=O)=O)CC3)nc21 (10 µM) 0
COc1c(NC(=O)C(=O)c2ccc(OCCN3CCOCC3)c3ccccc23)cc(C(C)(C)C)cc1NS(C)(=O)=O (2.5 µM) 0
COc1cc(S(C)(=O)=O)ccc1Nc1nc2ccc(-c3ccc(NC(=O)[C@H](C)c4ccc(F)cc4)cc3)cn2n1 [Empesertib] (10 µM) 0
Nc1cc(Nc2ccc(S(N)(=O)=O)cc2)ncn1 (10 µM) 0
O=C(O)c1cc(O)ccc1O [2,5-Dihydroxybenzoic acid] (10 µM) 0
OCCNC1CCCc2c1[nH]c1ccc(-c3ccccc3)cc21 (configuration not stated) (2.5 µM) 0
CC(C)CC1(O)CCN(C(=O)c2ccc(NS(=O)(=O)c3cccc4nccnc34)cc2)CC1 (10 µM) 0
CNC(=O)c1ccc(-c2cnc3cnc(C(=O)N(C)c4ccc(Cl)cc4)cn23)cc1 (2.5 µM) 0
